Experimental data taken from patent US20180045715A1, “STRUCTURE AND FUNCTION OF THE SALICYCLIC ACID BINDING SITES ON HUMAN HMGB1 AND METHODS OF USE THEREOF FOR THE RATIONAL DESIGN OF BOTH SALICYCLIC ACID DERIVATIVES AND OTHER AGENTS THAT ALTER ANIMAL AND PLANT HMGBS ACTIVITIES” (Boyce Thompson Institute for Plant Research, Inc., priority 2015, published 2018).
Some entries share one result that the patent states for a list of compounds. At least one compound was matched to its structure with a doubt left.

Biological target: T1, HMGB1 Box A domain (Homo sapiens, UniProt P09429)
T1 construct: (iii) Box A: residues 10-80; hexaHis (TEV-cleavable) (N, cleaved yes); made in house
T1 sequence (P09429 10-80): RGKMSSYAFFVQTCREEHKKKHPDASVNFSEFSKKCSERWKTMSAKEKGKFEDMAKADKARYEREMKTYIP
Experiment: 15N-1H HSQC titration for Kd measurement
Format: binding
Settings: read-out: affinity (Kd) for Box A of HMGB1 as stated in definitions
Method: […] Samples were analyzed with and without SA or other candidate inhibitors at 25° C. Chemical shift perturbation studies were carried out using either a Bruker Avance 800 MHz Avance NMR system with 4-mm NMR tubes, or using a Bruker Avance 600 MHz NMR spectrometer equipped with a 1.7 mm micro cryoprobe. 1024 or 2048 complex points were acquired for each of 80 to 200 increments in the ^15N dimension with a recycle delay of 1 s. Each spectrum was typically acquired for 2-8 hrs. Chemical shift assignments were determined using a uniformly ^13C,^15N-enriched HMGB1-ΔC construct at 25° C. via traditional triple-resonance NMR experiments (Biamonti et al., 1994; Moseley et al., 2001) recorded on a Bruker 800 MHz NMR spectrometer equipped with a 5 mm cryoprobe. Disulfide oxidation studies were carried out using the ^15N-^1H SOFAST-HMQC NMR experiment (Schanda & Brutscher, 2005; Schanda et al., 2005; Zandarashvili et al., 2013).
NMR experiments were used to discover that ac3AESA binds to HMGB1 Box A domain of HMGB1 more tightly than SA itself. […] Chemical shift perturbations (CSPs) are defined as Δδppm=[(δHN*6.5)^2+δN^2]^1/2.

CC(=O)Oc1c(CCN)cccc1C(=O)O [ac3AESA, acetyl-3-aminoethyl-salicyclic acid]
Kd: < 10 mM
